Data as given in PubChem BioAssay AID652243 (Drosophila RNAi Screening Center, 2013)

Test: 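Fly regulators of androgen-dependent reporter output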 (primary screen)
System: Drosophila S2R+ cells
Reagent: long dsRNA against Drosophila genes
Timing: 72 h (48 h, then 24 h hormone)
Treatment: synthetic androgen R1881 at 10 nM for 24 h
Detection: 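Per-well raw luminescence of the androgen-driven firefly reporter and of the Renilla control, two replicates each, without normalisation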
Scale: firefly reporter light: higher = more light from androgen-responsive reporter; Renilla control light: higher = more constitutive control signal (cell number, transfection)
Rule for the call: 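Hit when the log firefly-to-Renilla ratio dropped or increased by a fixed fold versus the mean of GFP or LacZ controls across duplicate plates; lowering cut given as 1.5 and as 3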
Meaning of the calls: active = hit: reporter lowered or raised; inactive = no hit
The screen tested about 24,000 reagents; shown is a random part of those with a known target gene and a result. Over the whole deposit, 246 (1%) were called active. 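Plates not normalised; calls are printed but the firefly/Renilla ratio behind them is not deposited; fold cut for lowering reported inconsistently.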 The raw values are shown without normalisation. Entries without a mark were called inactive. Reagents against one gene are numbered here. A plus sign joins genes that one reagent is predicted to hit. The record does not give: the amount of reagent.

After knock-down of CG32187, the screen gave firefly reporter light, replicate 1 = 1.57e5; firefly reporter light, replicate 2 = 1.20e5; Renilla control light, replicate 1 = 1.63e6; Renilla control light, replicate 2 = 1.59e6.
After knock-down of Nnk (Nicknack) #1, the record shows firefly reporter light, replicate 1 = 54201; firefly reporter light, replicate 2 = 69357; Renilla control light, replicate 1 = 1.06e6; Renilla control light, replicate 2 = 1.14e6.
After knock-down of Nnk (Nicknack) #2, the record shows firefly reporter light, replicate 1 = 6.37e5; firefly reporter light, replicate 2 = 5.76e5; Renilla control light, replicate 1 = 6.22e5; Renilla control light, replicate 2 = 7.37e5.
After knock-down of Gr58b (Gustatory receptor 58b), the record shows firefly reporter light, replicate 1 = 2.73e5; firefly reporter light, replicate 2 = 2.85e5; Renilla control light, replicate 1 = 1.78e6; Renilla control light, replicate 2 = 1.26e6.
CheA84a (Chemosensory protein A 84a) scored firefly reporter light, replicate 1 = 8.11e5; firefly reporter light, replicate 2 = 9.15e5; Renilla control light, replicate 1 = 1.46e6; Renilla control light, replicate 2 = 1.42e6.
Against msd5 (mitotic spindle density 5) #1 the deposit lists firefly reporter light, replicate 1 = 44961; firefly reporter light, replicate 2 = 1.01e5; Renilla control light, replicate 1 = 6.66e5; Renilla control light, replicate 2 = 7.28e5.
After knock-down of msd5 (mitotic spindle density 5) #2 the results were firefly reporter light, replicate 1 = 2.45e5; firefly reporter light, replicate 2 = 2.69e5; Renilla control light, replicate 1 = 4.86e5; Renilla control light, replicate 2 = 6.36e5.
strat (stratum) showed firefly reporter light, replicate 1 = 1.92e5; firefly reporter light, replicate 2 = 1.82e5; Renilla control light, replicate 1 = 1.72e6; Renilla control light, replicate 2 = 1.66e6.

2 of these entries, set out differently:
gene knocked down,reagent no.,"firefly reporter light, replicate 1","firefly reporter light, replicate 2","Renilla control light, replicate 1","Renilla control light, replicate 2"
Nnk (Nicknack),2,6.37e5,5.76e5,6.22e5,7.37e5
Gr58b (Gustatory receptor 58b),1,2.73e5,2.85e5,1.78e6,1.26e6

The list goes on:
CG42367 #1 gave firefly reporter light, replicate 1 = 6.46e5; firefly reporter light, replicate 2 = 6.40e5; Renilla control light, replicate 1 = 2.49e6; Renilla control light, replicate 2 = 1.88e6.
Knock-down of CG42367 #2 resulted in: firefly reporter light, replicate 1 = 6.20e5; firefly reporter light, replicate 2 = 5.15e5; Renilla control light, replicate 1 = 4.79e5; Renilla control light, replicate 2 = 5.56e5.
Vha36-3 (Vacuolar H[+] ATPase 36kD subunit 3) #1 gave firefly reporter light, replicate 1 = 5.04e5; firefly reporter light, replicate 2 = 4.76e5; Renilla control light, replicate 1 = 4.13e6; Renilla control light, replicate 2 = 3.27e6.
With knock-down of Vha36-3 (Vacuolar H[+] ATPase 36kD subunit 3) #2, the screen gave firefly reporter light, replicate 1 = 4.34e5; firefly reporter light, replicate 2 = 4.43e5; Renilla control light, replicate 1 = 1.30e6; Renilla control light, replicate 2 = 1.47e6.
After knock-down of CG18870 the results were firefly reporter light, replicate 1 = 2.64e5; firefly reporter light, replicate 2 = 2.06e5; Renilla control light, replicate 1 = 1.40e6; Renilla control light, replicate 2 = 1.07e6.
Depletion of CG30020 #1 came out at: firefly reporter light, replicate 1 = 2.34e5; firefly reporter light, replicate 2 = 2.79e5; Renilla control light, replicate 1 = 2.52e6; Renilla control light, replicate 2 = 3.44e6.
CG30020 #2 gave firefly reporter light, replicate 1 = 3.11e5; firefly reporter light, replicate 2 = 2.64e5; Renilla control light, replicate 1 = 2.37e6; Renilla control light, replicate 2 = 1.79e6.
TwdlO (TweedleO) showed firefly reporter light, replicate 1 = 1.83e5; firefly reporter light, replicate 2 = 2.54e5; Renilla control light, replicate 1 = 2.29e6; Renilla control light, replicate 2 = 2.33e6.
For cnc (cap-n-collar) #1 the deposit lists firefly reporter light, replicate 1 = 1.39e5; firefly reporter light, replicate 2 = 1.38e5; Renilla control light, replicate 1 = 1.90e6; Renilla control light, replicate 2 = 1.68e6.
For cnc (cap-n-collar) #2 the deposit lists firefly reporter light, replicate 1 = 61266; firefly reporter light, replicate 2 = 62415; Renilla control light, replicate 1 = 6.26e5; Renilla control light, replicate 2 = 6.48e5.
With knock-down of cnc (cap-n-collar) #3, the record shows firefly reporter light, replicate 1 = 1.80e5; firefly reporter light, replicate 2 = 2.61e5; Renilla control light, replicate 1 = 2.62e6; Renilla control light, replicate 2 = 2.78e6.
Against cnc (cap-n-collar) #4, the entry reads firefly reporter light, replicate 1 = 2.48e5; firefly reporter light, replicate 2 = 2.34e5; Renilla control light, replicate 1 = 1.99e6; Renilla control light, replicate 2 = 1.94e6.
With knock-down of Hsp70Aa + Hsp70Ab #1, the record shows firefly reporter light, replicate 1 = 84468; firefly reporter light, replicate 2 = 91243; Renilla control light, replicate 1 = 3.01e5; Renilla control light, replicate 2 = 2.84e5.
Knock-down of Hsp70Aa + Hsp70Ab #2 came out at: firefly reporter light, replicate 1 = 3.91e5 (active); firefly reporter light, replicate 2 = 4.36e5; Renilla control light, replicate 1 = 1.58e6; Renilla control light, replicate 2 = 1.58e6.
